# Source: PubChem BioAssay
# This list was built around the results that the source calls inconclusive (neither active nor inactive); the mix of calls is not that of the screen. Potencies of inconclusive entries are doubtful fits and often do not repeat. Active and inactive are the calls of the source. Unless noted, the limit is not given here; nearly all actives have AC50 up to about 26 µM.
# Assays:
# [1] = growth inhibition of DIPG glioma cells, dose response, cell-based, SU-DIPG-XVII, MIPE5.0, CellTiter-Glo, qHTS (AID 1347060); settings: SU-DIPG-XVII viability, CellTiter-Glo ATP luminescence;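 as to AC50: cells exposed to compound for 48 hours before viability readout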
# [2] = growth inhibition of DIPG glioma cells, dose response, cell-based, SU-DIPG-XIII, MIPE5.0, CellTiter-Glo, qHTS (AID 1347064; cut-off not given, nearly all actives have AC50 up to about 23 µM;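 as to AC50: cells exposed to compound for 48 hours before the viability read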); settings: SU-DIPG-XIII viability, CellTiter-Glo ATP luminescence
# [3] = viability loss in pontine glioma line – cell-based, SU-DIPG-XXV, MIPE5.0, CellTiter-Glo, qHTS, dose response (AID 1347065); settings: CellTiter-Glo ATP luminescence;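 also: cells exposed to compound for 48 hours before ATP readout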
# [4] = SU-DIPG-XXV glioma cell viability, MIPE5.0 library, qHTS (AID 1347068; cut-off not given, nearly all actives have IC50 up to about 30 µM;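 as to IC50: cells exposed to compound for 48 hours before viability readout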)
# [5] = JHH-DIPG-1 glioma cell viability, MIPE5.0 library, CellTiter-Glo luminescence, qHTS (AID 1347067); settings: JHH-DIPG-1 glioma viability, CellTiter-Glo ATP luminescence;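 also: cells exposed to compound for 48 hours before readout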
smiles,measurement,setting,value
Cc1nnc(C(C)C)n1C1CC2CCC(C1)N2CCC(NC(=O)C1CCC(F)(F)CC1)c1ccccc1 (stereo unspecified),AC50,[1],inconclusive: 33.2 µM [cytotoxic]
same,outcome,[2],inactive
same,outcome,[3],inactive
same,outcome,[4],inactive
O=C(/C=C/C#Cc1cccc(NS(=O)(=O)c2ccccc2)c1)NO,AC50,[1],inconclusive: 0.0456 µM [cytotoxic]
same,AC50,[2],active: 1.29 µM
same,AC50,[3],active: 1.82 µM
same,IC50,[4],inconclusive: 2.57 µM [cytotoxic]
[2H]C([2H])([2H])C(O)([C@@H](C)/C=C/[C@@H](C)[C@H]1CC[C@H]2/C(=C/C=C3C[C@@H](O)C[C@H](O)C3)CCC[C@]12C)C([2H])([2H])[2H],outcome,[1],inactive
same,outcome,[2],inactive
same,AC50,[3],inconclusive: 37.2 µM [cytotoxic]
same,IC50,[4],inconclusive: 33.2 µM
CC(C)(CO)n1cc(C(=O)c2cncc(NC(=O)Cc3ccc(Cl)cn3)c2)c2cnc(N)nc21,outcome,[1],inactive
same,AC50,[2],inconclusive: 0.0186 µM [cytotoxic]
same,outcome,[3],inactive
same,outcome,[4],inactive
CC1c2cccc(O)c2C(O)=C2C(=O)C3(O)C(O)=C(C(N)=O)C(=O)C(N(C)C)C3C(O)C21 (stereo unspecified),AC50,[1],inconclusive: 37.2 µM [cytotoxic]
same,AC50,[2],inconclusive: 37.2 µM [cytotoxic]
same,AC50,[3],inconclusive: 29.5 µM [cytotoxic]
same,outcome,[4],inactive
c1cn2cc(-c3ccc4cn[nH]c4c3)nc(Nc3ccc(N4CCOCC4)cc3)c2n1,AC50,[1],inconclusive: 0.263 µM [cytotoxic]
same,AC50,[2],active: 11.8 µM
same,AC50,[3],active: 6.61 µM
same,outcome,[4],inactive
CN(C)c1cc(NC(=O)CNC(C)(C)C)c(O)c2c1C[C@H]1C[C@H]3[C@H](N(C)C)C(=O)C(C(N)=O)=C(O)[C@]3(O)C(=O)C1=C2O,AC50,[1],inconclusive: 14.8 µM [cytotoxic]
same,outcome,[2],inactive
same,outcome,[3],inactive
same,IC50,[4],inconclusive: 6.61 µM
COC1CCN(C(=O)c2cc(Cc3n[nH]c(=O)c4ccccc34)ccc2F)CC1,AC50,[1],inconclusive: 29.5 µM [cytotoxic]
same,outcome,[2],inactive
same,outcome,[3],inactive
same,outcome,[4],inactive
CC#CC(=O)N1CCC[C@H]1c1nc(-c2ccc(C(=O)Nc3ccccn3)cc2)c2c(N)nccn12,outcome,[1],inactive
same,outcome,[2],inactive
same,outcome,[3],inactive
same,IC50,[4],inconclusive: 5.74 µM
O=C(/C=C/N1C[C@H]2C[C@@H]1CN2c1ccccn1)c1ccccc1O,outcome,[1],inactive
same,AC50,[2],inconclusive: 0.00331 µM
same,AC50,[3],inconclusive: 0.186 µM
same,IC50,[4],inconclusive: 0.105 µM
CNC(=O)[C@H](Cc1c[nH]c2ccccc12)NC(=O)[C@@H](CC(=O)NO)CC(C)C,outcome,[1],inactive
same,outcome,[2],inactive
same,AC50,[3],inconclusive: 14.8 µM [cytotoxic]
same,outcome,[4],inactive
Nc1nc(F)nc2c1ncn2[C@@H]1O[C@H](CO)[C@@H](O)[C@@H]1O,AC50,[1],active: 10.5 µM
same,AC50,[2],inconclusive: 14.8 µM [cytotoxic]
same,AC50,[3],inconclusive: 23.5 µM [cytotoxic]
same,IC50,[4],inconclusive: 18.6 µM [cytotoxic]
C[C@@H](O)[C@@H]1NC(=O)[C@H](CCCCN)NC(=O)[C@@H](Cc2c[nH]c3ccccc23)NC(=O)[C@H](Cc2ccccc2)NC(=O)[C@@H](NC(=O)[C@H](N)Cc2ccccc2)CSSC[C@@H](C(=O)N[C@H](CO)[C@@H](C)O)NC1=O,outcome,[1],inactive
same,outcome,[2],inactive
same,outcome,[3],inactive
same,IC50,[4],inconclusive: 0.000574 µM
CCCN(CCC)C(=O)C1=Cc2ccc(-c3ccc(C(=O)N4CCCC4)cc3)cc2N=C(N)C1,AC50,[1],inconclusive: 29.5 µM [cytotoxic]
same,AC50,[2],inconclusive: 20.9 µM [cytotoxic]
same,AC50,[3],active: 20.9 µM
same,outcome,[4],inactive
CC1(N)CCN(c2cnc(-c3cccc(Cl)c3Cl)c(N)n2)CC1,AC50,[1],inconclusive: 3.23 µM [cytotoxic]
same,outcome,[2],inactive
same,AC50,[3],inconclusive: 0.000574 µM [cytotoxic]
same,outcome,[4],inactive
COc1ccc2nc3n[nH]c(C)c3c(NCCOCCO)c2c1,AC50,[1],inconclusive: 0.00105 µM [cytotoxic]
same,outcome,[2],inactive
same,AC50,[3],inconclusive: 26.3 µM [cytotoxic]
same,IC50,[4],inconclusive: 18.6 µM
Cn1cc(-c2ccc(-c3cncc(Cl)c3N3CCC4(CCNC4=O)CC3)cc2)cn1,AC50,[1],inconclusive: 0.332 µM [cytotoxic]
same,AC50,[2],inconclusive: 23.5 µM [cytotoxic]
same,AC50,[3],inconclusive: 37.2 µM [cytotoxic]
same,outcome,[4],inactive
COc1ccccc1C(=O)Nc1cc2c(cc1N1CCCCC1)n(C)c(=O)n2C,AC50,[1],inconclusive: 33.2 µM [cytotoxic]
same,AC50,[2],inconclusive: 23.5 µM [cytotoxic]
same,AC50,[5],inconclusive: 2.63 µM [cytotoxic]

# An excerpt of these results, with bars between the fields.
smiles | measurement | setting | value
Cc1nnc(C(C)C)n1C1CC2CCC(C1)N2CCC(NC(=O)C1CCC(F)(F)CC1)c1ccccc1 (stereo unspecified) | outcome | [2] | inactive
same | outcome | [3] | inactive
same | outcome | [4] | inactive
O=C(/C=C/C#Cc1cccc(NS(=O)(=O)c2ccccc2)c1)NO | AC50 | [1] | inconclusive: 0.0456 µM [cytotoxic]
same | AC50 | [2] | active: 1.29 µM
same | AC50 | [3] | active: 1.82 µM
same | IC50 | [4] | inconclusive: 2.57 µM [cytotoxic]
[2H]C([2H])([2H])C(O)([C@@H](C)/C=C/[C@@H](C)[C@H]1CC[C@H]2/C(=C/C=C3C[C@@H](O)C[C@H](O)C3)CCC[C@]12C)C([2H])([2H])[2H] | outcome | [1] | inactive
same | outcome | [2] | inactive
same | AC50 | [3] | inconclusive: 37.2 µM [cytotoxic]
same | IC50 | [4] | inconclusive: 33.2 µM
CC(C)(CO)n1cc(C(=O)c2cncc(NC(=O)Cc3ccc(Cl)cn3)c2)c2cnc(N)nc21 | outcome | [1] | inactive
same | AC50 | [2] | inconclusive: 0.0186 µM [cytotoxic]
